Literature values in patent US9913849B2, “Treatment of migraines” (Manistee Partners LLC, priority 2014, dated 2018).
At least one structure is not confirmed: it was looked up by name or label, or the drawing left a doubt.

Settings: individuals with quantifiable plasma concentrations (N=38); cited from earlier work

SMILES: O=C(O)CCC/C=C\C[C@@H]1[C@@H](/C=C/[C@@H](O)COc2cccc(C(F)(F)F)c2)[C@H](O)C[C@@H]1O [travoprost free acid]
- time at which plasma Cmax was reached: ≤ 30 min
